Data source: PubChem BioAssay AID504804 (Drosophila RNAi Screening Center, 2011)
Purpose: 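Fly genes whose loss lessens doxorubicin-driven cell death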 (primary screen). System: Drosophila Kc cells. Knock-down reagent: long dsRNA against Drosophila genes, 0.5 µg dsRNA per well. Time to read-out: 96 h (48 h knock-down, then 48 h drug). Treatment: doxorubicin 5 µg/ml for 48 h, added 48 h after dsRNA. Read-out: 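Luminescent ATP counts per replicate, not normalised, reflecting viable cells after 48 h dsRNA knock-down followed by 48 h of 5 µg/ml doxorubicin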. Reading the numbers: raw ATP luminescence: higher = more viable cells, protection from doxorubicin. Rule for the call: 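Active when both duplicate wells lie at least 2 SD above the plate mean and protection is confirmed by rescreening and independent dsRNAs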.
In all, the deposit lists about 19,000 reagents; below is an unselected part of those with a known target gene and a result. In the full data, 47 (0.25%) got an active call. 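Signals are raw, not normalised; exact z-scores behind calls not deposited; actives needed confirmation, so some wells reaching 2 SD are inactive.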 A number with no mark means an inactive call. Reagents against one gene are numbered here. Names joined by + are all predicted targets of the reagent.

gene,reagent no.,"raw ATP luminescence, replicate 1","raw ATP luminescence, replicate 2"
beat-IIIa (beaten path IIIa),1,3.22e5,3.34e5
beat-IIIa (beaten path IIIa),2,3.32e5,3.08e5
beat-IIIa (beaten path IIIa),3,51623,59993
CG6283,1,66040,49480
Orct2 (Organic cation transporter 2),1,52320,54580
topi (matotopetli),1,61483,44477
CG6294 + CG6299 + CG15642,1,3.14e5,3.28e5
how (held out wings),1,31280,32070
CG3502,1,76307,75907
CG14418,1,36510,25470
skl (sickle),1,61683,51280
Srp9 (Signal recognition particle 9),1,68167,63003
CG32202,1,59923,51717
CG12998,1,3.02e5,3.14e5
Sec16 (Secretory 16),1,2.86e5,2.83e5
Sec16 (Secretory 16),2,3.58e5,3.27e5
CG31855,1,57577,65693
CG15283,1,73013,80397
Rbp1 (RNA-binding protein 1),1,55600,21023
stv (starvin),1,17070,20910
stv (starvin),2,54887,58723
lqfR (liquid facets-Related),1,42820,34220
lqfR (liquid facets-Related),2,56420,48080
CG32507,1,2.60e5,2.67e5
mex1 (midgut expression 1),1,38220,33260
CG15465,1,45090,41750
Mi-2,1,84110,72367
Kap-alpha1 (karyopherin alpha1),1,63620,60207
CG5618,1,25703,28333
hmw (hemingway),1,31120,31663
CG14309,1,60790,67260
Cyp28d1 (Cytochrome P450 28d1),1,1.26e5,78040
Obp44a (Odorant-binding protein 44a),1,55653,77963
stl (stall),1,74533,63283
CG16710,1,67880,56420
slp2 (sloppy paired 2),1,24087,26400
CG30423,1,77037,83727
Scp2 (Sarcoplasmic calcium-binding protein 2),1,1.77e5,1.82e5
Scp2 (Sarcoplasmic calcium-binding protein 2),2,1.24e5,64390
CG14708,1,58587,50160

15 entries from above, limited to “raw ATP luminescence, replicate 2”:
CG3502: 75907
CG14418: 25470
skl (sickle): 51280
Srp9 (Signal recognition particle 9): 63003
CG32202: 51717
CG12998: 3.14e5
Sec16 (Secretory 16) #1: 2.83e5
Sec16 (Secretory 16) #2: 3.27e5
CG31855: 65693
CG15283: 80397
Rbp1 (RNA-binding protein 1): 21023
stv (starvin) #1: 20910
stv (starvin) #2: 58723
lqfR (liquid facets-Related) #1: 34220
lqfR (liquid facets-Related) #2: 48080

More results follow:
gene,reagent no.,"raw ATP luminescence, replicate 1","raw ATP luminescence, replicate 2"
Mov10 (Mov10 RISC complex RNA helicase),1,81267,88750
Dtwd2 (DTW domain containing 2),1,76063,58927
CG3513,1,36060,46767
Vps29 (Vacuolar protein sorting 29),1,1.17e5,58640
Phae2 (Phaedra 2),1,72803,76623
aph-1 (anterior pharynx defective 1),1,91880,77323
"beta4GalNAcTB (beta1,4-N-acetylgalactosaminyltransferase B)",1,65310,71890
Rab9D + Rab9Fa + Rab9E,1,3.06e5,3.09e5
CG4751,1,1.43e5,84103
Naam (Nicotinamide amidase),1,71100,56810
CG12486 (retired record),1,85110,60397
CG15160,1,27097,23850
udt (undicht),1,61410,53690
ens (ensconsin),1,40397,41100
tud (tudor),1,65310,47233
Prosbeta4R2 (Proteasome beta4 subunit-related 2),1,1.14e5,73020
CG5644,1,67050,85083
CG4942,1,66273,40987
CG4770,1,55960,73920
Optix,1,97817,1.18e5
Optix,2,57300,46847
CG33689,1,87313,86253
Spred (Sprouty-related protein with EVH-1 domain),1,67487,51017
cd (cardinal),1,53780,60850
CG33095,1,61030,62550
CG4042,1,65943,72907
anne (anne boleyn),1,1.42e5,2.08e5
vimar (visceral mesodermal armadillo-repeats),1,85447,58493
Sf3b6 (Splicing factor 3b subunit 6),1,78480,79627
Dic4,1,62433,42100
CG33158,1,1.91e5,2.18e5
CG33158,2,62623,52493
CG33158,3,62737,70387
CG15255,1,67210,70987
CG11699,1,3.25e5,3.07e5
Got2 (Glutamate oxaloacetate transaminase 2),1,1.09e5,75833
CG10151,1,58563,49180
CG15597,1,71443,44757
eys (eyes shut),1,2.20e5,2.05e5
eys (eyes shut),2,1.16e5,82963
CG12848,1,46160,67523
ena (enabled),1,95403,58677
ena (enabled),2,56127,81347
mah (mahogany),1,75060,84720
CG12620,1,66270,68490
CG32147,1,61630,80840
Tom70 (Translocase of outer membrane 70),1,56720,66667
Peritrophin-15a,1,39277,81617
CG3927,1,64307,50737
Odj (Oddjob),1,43833,41250
CG2336,1,67637,67317
tok (tolkin),1,48763,57707
Pcyt1 (Phosphocholine cytidylyltransferase 1),1,62053,63230
rho-6 (rhomboid-6),1,72813,78517
Fbxo42 (F-box protein 42),1,84420,67090
Spn31A (Serpin 31A),1,45343,42700
CG14551,1,74640,64840
Mst33A,1,41497,76363
DCP1 (Decapping protein 1),1,71887,71657
"E(spl)m8-HLH (Enhancer of split m8, helix-loop-helix)",1,53600,51330
sxe2 (sex-specific enzyme 2),1,46653,45940
CG3216,1,74913,65223
Pbgs (Porphobilinogen synthase),1,80603,66317
CG31637,1,1.38e5,86407
CG31637,2,22743,20127
CG1142,1,64867,54113
Kr (Kruppel),1,19407,69180
